The list shows a part of the results.

Chains of the proteins cited; added tags and fusions are not shown.
UniProt Q0JBA9, entry or part of it: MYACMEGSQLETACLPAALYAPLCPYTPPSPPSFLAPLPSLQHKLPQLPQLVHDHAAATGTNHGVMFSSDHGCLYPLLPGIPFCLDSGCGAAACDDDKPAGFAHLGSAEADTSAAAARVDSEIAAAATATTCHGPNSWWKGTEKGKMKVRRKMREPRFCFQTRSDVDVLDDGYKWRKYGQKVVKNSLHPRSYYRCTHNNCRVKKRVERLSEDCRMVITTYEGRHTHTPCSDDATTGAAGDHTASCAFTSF

The experiment has as its target OsWRKY34 (Oryza sativa, UniProt Q0JBA9 1-250). In words: protein-binding microarray (RPBM); PBS, 2% BSA, 51.3 ng/ul salmon testes DNA, 50 uM zinc acetate, 200 nM TF, 25 C, 1 h; high values mean tight binding. The following applies: protein: recombinant; tags: N-terminal polyhistidine and DsRed monomer fusion (pET32a); label: CyDye5-dUTP incorporated in the synthesized complementary strand; 3' TTTTT single-stranded linker to array surface; dsDNA, one strand shown. The procedure, abridged: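 Binding signal is defined as the fluorescence intensity of each feature in arbitrary units, read on an Axon 4000B scanner. Transcription factors with N-terminal polyhistidine and DsRed fusions came from E. coli BL21-CodonPlus and were purified on Ni–NTA. They were incubated at 200 nM for 1 h at 25 °C on a custom Agilent array that had been made double-stranded with Cy5-dUTP, with 50 µM zinc acetate present, and the array was washed.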
Regarding “GGCCCTATTTAGATCTCCTGCCAAAATTTTACACTCTGTCCGGAGTCACCTAGTGCAG”, the binding signal was 10700 fluorescence intensity (a.u.).
The figure for “AGTCCTTTTTGCTCCTCTATCTCTCAGATCTTCTGATCGACGGAGTCACCTAGTGCAG” is 10600 fluorescence intensity (a.u.); for “TCCTATCATGCGTGTGCCTCTAGCCCCGGTAGTAATTAACCGGAGTCACCTAGTGCAG” it is 8770 fluorescence intensity (a.u.).
Then “ACCAGAAACATTCCATTTCCGTATACCTCGTCCTCGTGTCCGGAGTCACCTAGTGCAG”, with 8180 fluorescence intensity (a.u.); and “TCTCGCCATTTCCGCGGCGCCACCGCACTCCGCCACTCTCCGGAGTCACCTAGTGCAG”, with 9030 fluorescence intensity (a.u.); and “CTACCCCTAATTCTAGGCACCGCTCTTCTACCTTTGGCCTCGGAGTCACCTAGTGCAG”, with 10000 fluorescence intensity (a.u.).
Turning to “ACACTTCATGCGTAATTTCTGTGTGCTGATCGATGAACCACGGAGTCACCTAGTGCAG”, the binding signal was 8630 fluorescence intensity (a.u.).
Then “CATGTACTCCCTGTTGAATTGCACTTTGACCCCTATCATCCGGAGTCACCTAGTGCAG”, with 14300 fluorescence intensity (a.u.); and “GGATCTCGTTTGTCTGGTTTTCGTAAGTTGAGGGACGGGTCGGAGTCACCTAGTGCAG”, with 8380 fluorescence intensity (a.u.).
The figure for “CATCACTCAACGATCGAGCTTGCGGGTGTTGACCGGCCATCGGAGTCACCTAGTGCAG” is 8160 fluorescence intensity (a.u.); for “ATCCTTGTGTCTCTCTGTCTGCACCACTCTCCTCTCTCTTCGGAGTCACCTAGTGCAG” it is 13400 fluorescence intensity (a.u.).
As for “ATTCTGTCTCGATCTCATGTTCAGAATTTTTCCGCAGTTCCGGAGTCACCTAGTGCAG”, the binding signal is 8750 fluorescence intensity (a.u.).
Then “CATCGATCTCTCCTAGATTATCTCTCTCTCCAATTTGCTCCGGAGTCACCTAGTGCAG”, with 8310 fluorescence intensity (a.u.); and “TCCATCCGTTCCGTTGTGATACCCATGCTGTTATCCGGTTCGGAGTCACCTAGTGCAG”, with 8680 fluorescence intensity (a.u.); and “GCCTCATCTCCGTGCATCTCGCTACCTAACCTAGCTAACCCGGAGTCACCTAGTGCAG”, with 8660 fluorescence intensity (a.u.).
Then “CGGGGTGATTCATTCGGGTTCCTGTAGCTACACGCAGTGTCGGAGTCACCTAGTGCAG”, with 9190 fluorescence intensity (a.u.); and “TCGGTTTTTCCCATTTGCGCGATTGCCCGGACCGATTTCTCGGAGTCACCTAGTGCAG”, with 11000 fluorescence intensity (a.u.); and “GTTGAAACTTTTTTATTTCCTTAGTTCCTTTTTTTCATCACGGAGTCACCTAGTGCAG”, with 9560 fluorescence intensity (a.u.).
As to “GGTGTTTTTCACGCGCGGTCCCCTTCCATGTTGGGGTATTCGGAGTCACCTAGTGCAG”, the binding signal was 15500 fluorescence intensity (a.u.).
The figure for “CACGTCGTCGATGCCTTTTCGTTGTTCGCGTCGGGTTCACCGGAGTCACCTAGTGCAG” is 9440 fluorescence intensity (a.u.); for “CTGCCGCTCTGGTTCTCCAACTCTGCATACATATACCTCTCGGAGTCACCTAGTGCAG” it is 12000 fluorescence intensity (a.u.); for “CTCCTGCTTCTCTGTTCTTTCCATTCTCCTCCTTTTTTTCCGGAGTCACCTAGTGCAG” it is 14600 fluorescence intensity (a.u.).
Consider “TCCGTTCCATCGTAATCCTTCTCCGATCCGAATTTGCTTCCGGAGTCACCTAGTGCAG”, for which the binding signal is 9120 fluorescence intensity (a.u.).
Then “CCATCCTCCCCTCCTGCTCGGTTGTTTTCGCTTCAGGTTCCGGAGTCACCTAGTGCAG”, with 9210 fluorescence intensity (a.u.); and “CGGGGTATTAGAACTGGCGGGTGTATTTGCTATATTTAGTCGGAGTCACCTAGTGCAG”, with 15100 fluorescence intensity (a.u.).
Then “TCCGCCTCAGCGTCTTAAATGCAACATCTAACTCTCACCACGGAGTCACCTAGTGCAG”, with 8180 fluorescence intensity (a.u.).
The figure for “TTTGCGGCCGGCTCCTCTCGTTCCAGGGATGCATGATCATCGGAGTCACCTAGTGCAG” is 9020 fluorescence intensity (a.u.); for “TAGCTAGTTACCTTCAATTGCTGTTCGTTTTGCCAAATTACGGAGTCACCTAGTGCAG” it is 8900 fluorescence intensity (a.u.).
For “CTCTCGCCGCCACCCCGGCCCGCGCGCGCAAGCAACCTTACGGAGTCACCTAGTGCAG”, the binding signal is 8460 fluorescence intensity (a.u.).
Then “TCCTCCTCTCCTCTTCTCCCTCCTGCGCCGCCGCCACCTCCGGAGTCACCTAGTGCAG”, with 9100 fluorescence intensity (a.u.); and “TGTCTGCGCTACAGTGCTACCTGTTCATTCTCCGGTAGCCCGGAGTCACCTAGTGCAG”, with 10000 fluorescence intensity (a.u.).
For “TAGCTCATTCATGCCTCCATCGGTTGACTTTTTTTTTCTACGGAGTCACCTAGTGCAG”, the binding signal was 20500 fluorescence intensity (a.u.).
“TAAGCTGGCTACAAGTCTATAGCCGCTGCTCTTATCTCTCCGGAGTCACCTAGTGCAG”: the binding signal was 8100 fluorescence intensity (a.u.).
“GACGGTTCCTGTAGTTTCCGCATCGACCACATCCTCGCGACGGAGTCACCTAGTGCAG”: the binding signal was 8630 fluorescence intensity (a.u.).
Then “ACGAAATACTACCTCCATATTTTAATGTATCACACCGTTACGGAGTCACCTAGTGCAG”, with 8090 fluorescence intensity (a.u.); and “TTCTTTTTAGATAAGTGCTACTTTTATTTTTCCTTCTATACGGAGTCACCTAGTGCAG”, with 8390 fluorescence intensity (a.u.); and “TTGCCATCTCATTTCTTGCATCATCTCCTCCCAATTCCAACGGAGTCACCTAGTGCAG”, with 10300 fluorescence intensity (a.u.).
Then “GTGGGTGGTCGGTCTGGTCGAAGGTGAGGGCAACCTCCGACGGAGTCACCTAGTGCAG”, with 9100 fluorescence intensity (a.u.); and “ACATTTATTCTCCGATCGCTTTCATAGCTTTTCCTTTTCTCGGAGTCACCTAGTGCAG”, with 11500 fluorescence intensity (a.u.); and “ATTTGACATCACCCCTTATATACCCCTGAATTTTCATTTTCGGAGTCACCTAGTGCAG”, with 11500 fluorescence intensity (a.u.).
The figure for “TCTCTCCTGCCCAAGCGACGGCCGCCGCCGCGTGCCGTCCCGGAGTCACCTAGTGCAG” is 10200 fluorescence intensity (a.u.); for “TCTCTAGTTTCTCGCACCACCTGCCTACATATCGCCACAGCGGAGTCACCTAGTGCAG” it is 11700 fluorescence intensity (a.u.).

The values are drawn from paper PMC7819943, “Rice protein-binding microarrays: a tool to detect cis-acting elements near promoter regions in rice”.
